Measured values as given in patent publication US8937182B2, “Synthesis for thiazolidinedione compounds” (Metabolic Solutions Development Company, LLC, priority 2010, dated 2015).
Some of these results come from one statement about several compounds together.

System: KKA^Y mice
Test: Glucose, insulin and triglyceride in diabetic KKAy mice treated with exemplary compounds
Format: in vivo
Details: 93 mg/kg oral for 4 days
Experimental: (§1) The insulin sensitizing and antidiabetic pharmacology are measured in the KKA^Y mice as previously reported [Hofmann, C., Lornez, K., and Colca, J. R. (1991). Glucose transport deficiency corrected by treatment with the oral anti-hyperglycemic agent Pioglitazone. Endocrinology, 129:1915-1925.] Compounds are formulated in 1% sodium carboxy methylcellulose, and 0.01% tween 20 and dosed daily by oral gavage.
Glucose, Insulin, and Triglyceride in Diabetic KKAy Mice Treated with Exemplary Compounds of the Present Invention.
as §1, with “129:1915-1925.].” for “129:1915-1925.]”
Compounds were formulated by suspension and orally dosed to KKA^Y mice at 93 mg/kg for 4 days. The compounds were first dissolved in DMSO and then placed into aqueous suspension containing 7-10% DMSO, 1% sodium methylcarboxycellulose, and 0.01% Tween 20. On the fifth day, the mice were fasted and blood samples were obtained approximately 18 hours after the last dose. The parameters were measured by standard assay methods. Data are mean and SEM N=6-12 mice.

| SMILES | plasma insulin level |
| --- | --- |
| O=C1NC(=O)C(Cc2ccc(OCC(=O)c3ccccc3)cc2)S1 (centres unmarked) [Compound 1, 5-[4-(2-oxo-2-phenylethoxy)benzyl]-1,3-thiazolidine-2,4-dione] | less than 5 ng/ml |
| O=C1NC(=O)C(Cc2ccc(OCC(=O)c3ccc(F)cc3)cc2)S1 (centres unmarked) [Compound 2, 5-{4-[2-(4-fluorophenyl)-2-oxoethoxy]benzyl}-1,3-thiazolidine-2,4-dione] | less than 5 ng/ml |
| O=C1NC(=O)C(Cc2ccc(OCC(=O)c3ccccc3F)cc2)S1 (centres unmarked) [Compound 3, 5-{4-[2-(2-fluorophenyl)-2-oxoethoxy]benzyl}-1,3-thiazolidine-2,4-dione] | less than 5 ng/ml |
| O=C1NC(=O)C(Cc2ccc(OCC(=O)c3cccc(F)c3)cc2)S1 (centres unmarked) [Compound 4, 5-{4-[2-(3-fluorophenyl)-2-oxoethoxy]benzyl}-1,3-thiazolidine-2,4-dione] | less than 5 ng/ml |
| COc1cccc(C(=O)COc2ccc(CC3SC(=O)NC3=O)cc2)c1 (centres unmarked) [Compound 5, 5-{4-[2-(3-methoxyphenyl)-2-oxoethoxy]benzyl}-1,3-thiazolidine-2,4-dione] | less than 5 ng/ml |
